This assay concerns the target FLAG-tagged RFC4 (UniProt P35249). Kind of assay: affinity purification with mass spectrometry; anti-FLAG affinity purification from lysates of A549 cells transfected with FLAG-tagged RFC4; indicated gel bands subjected to MS.

By UniProt entry, the sequences of proteins in these tests, tags left out. Residues count along the entry.
UniProt P35249: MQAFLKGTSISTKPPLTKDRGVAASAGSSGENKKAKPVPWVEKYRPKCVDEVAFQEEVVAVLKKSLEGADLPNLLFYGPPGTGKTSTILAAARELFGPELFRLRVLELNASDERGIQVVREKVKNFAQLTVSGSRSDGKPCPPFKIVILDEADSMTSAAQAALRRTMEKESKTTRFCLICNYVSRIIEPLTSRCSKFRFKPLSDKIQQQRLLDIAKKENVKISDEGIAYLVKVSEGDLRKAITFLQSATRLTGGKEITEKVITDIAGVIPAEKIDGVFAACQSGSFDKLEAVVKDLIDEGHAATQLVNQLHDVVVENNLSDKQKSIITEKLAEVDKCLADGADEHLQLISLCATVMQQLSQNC
UniProt P46531, residues 1754-2555: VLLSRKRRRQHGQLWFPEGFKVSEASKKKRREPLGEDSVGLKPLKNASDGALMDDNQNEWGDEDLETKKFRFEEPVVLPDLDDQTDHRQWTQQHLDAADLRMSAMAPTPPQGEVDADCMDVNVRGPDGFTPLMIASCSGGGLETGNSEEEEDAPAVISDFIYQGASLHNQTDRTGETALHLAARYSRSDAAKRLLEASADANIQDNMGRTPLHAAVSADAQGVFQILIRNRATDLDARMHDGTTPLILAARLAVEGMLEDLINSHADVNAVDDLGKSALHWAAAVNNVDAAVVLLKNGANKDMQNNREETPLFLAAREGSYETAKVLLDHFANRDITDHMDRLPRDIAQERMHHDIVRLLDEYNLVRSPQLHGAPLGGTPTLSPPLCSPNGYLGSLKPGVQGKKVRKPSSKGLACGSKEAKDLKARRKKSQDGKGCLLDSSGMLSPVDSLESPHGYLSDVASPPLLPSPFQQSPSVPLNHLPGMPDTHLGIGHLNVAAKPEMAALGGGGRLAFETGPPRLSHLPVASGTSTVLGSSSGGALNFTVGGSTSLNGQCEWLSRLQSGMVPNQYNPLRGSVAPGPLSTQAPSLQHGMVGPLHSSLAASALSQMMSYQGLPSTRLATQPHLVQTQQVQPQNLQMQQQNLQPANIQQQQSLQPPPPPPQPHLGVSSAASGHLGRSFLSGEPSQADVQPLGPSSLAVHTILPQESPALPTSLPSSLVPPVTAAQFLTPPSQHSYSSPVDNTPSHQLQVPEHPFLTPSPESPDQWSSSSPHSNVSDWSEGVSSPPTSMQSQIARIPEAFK

Results are given in words; binding and its absence hold for the method and conditions named. Binding seen in cells or lysates may run through a third protein. Here binding means that the protein was enriched with, or labelled near, the bait; the list need not be complete.

Regarding “endogenous Notch1 intracellular domain (NICD1) (from UniProt P46531 1754-2555) (domain or fragment)”, the binding result is given as “binds”.

The record behind these values is publication PMC8113560.
